Measured values as given in PMC11205155.
Results are given in words; binding and its absence hold for the method and conditions named.

Key:
Assay in all cases: two-hybrid; AD fusions (pGADT7) in S. cerevisiae Y187 mated with BD fusions (pGBKT7) in Y2HGold; diploids spotted at 5 x 10^2, 5 x 10^3 and 5 x 10^4 cells on double-dropout (SDM/-Leu/-Trp/X-α-Gal/AbA) and quadruple-dropout (SDM/-Leu/-Trp/-Ade/-His/X-α-Gal/AbA) plates, 3 days at 30 °C
[1] = molecular target: T1, WC2 of Beauveria bassiana (Beauveria bassiana) (UniProt J5JYA0)
T1 sequence: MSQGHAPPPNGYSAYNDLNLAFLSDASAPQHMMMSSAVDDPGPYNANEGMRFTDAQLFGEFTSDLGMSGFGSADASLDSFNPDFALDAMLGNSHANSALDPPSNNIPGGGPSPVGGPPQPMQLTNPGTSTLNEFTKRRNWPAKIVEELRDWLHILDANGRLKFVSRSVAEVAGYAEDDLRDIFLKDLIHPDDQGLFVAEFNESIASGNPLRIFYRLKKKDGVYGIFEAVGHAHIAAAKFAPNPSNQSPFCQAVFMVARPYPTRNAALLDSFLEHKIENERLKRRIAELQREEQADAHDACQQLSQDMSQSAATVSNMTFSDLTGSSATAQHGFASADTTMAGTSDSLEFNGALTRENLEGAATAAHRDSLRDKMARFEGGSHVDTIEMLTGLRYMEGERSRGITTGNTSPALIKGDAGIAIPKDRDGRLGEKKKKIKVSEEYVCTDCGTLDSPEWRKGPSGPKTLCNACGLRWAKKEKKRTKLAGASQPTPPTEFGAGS

[2] = molecular target: T2, Phr1 of Beauveria bassiana (Beauveria bassiana) (UniProt J4KQS2)
T2 sequence: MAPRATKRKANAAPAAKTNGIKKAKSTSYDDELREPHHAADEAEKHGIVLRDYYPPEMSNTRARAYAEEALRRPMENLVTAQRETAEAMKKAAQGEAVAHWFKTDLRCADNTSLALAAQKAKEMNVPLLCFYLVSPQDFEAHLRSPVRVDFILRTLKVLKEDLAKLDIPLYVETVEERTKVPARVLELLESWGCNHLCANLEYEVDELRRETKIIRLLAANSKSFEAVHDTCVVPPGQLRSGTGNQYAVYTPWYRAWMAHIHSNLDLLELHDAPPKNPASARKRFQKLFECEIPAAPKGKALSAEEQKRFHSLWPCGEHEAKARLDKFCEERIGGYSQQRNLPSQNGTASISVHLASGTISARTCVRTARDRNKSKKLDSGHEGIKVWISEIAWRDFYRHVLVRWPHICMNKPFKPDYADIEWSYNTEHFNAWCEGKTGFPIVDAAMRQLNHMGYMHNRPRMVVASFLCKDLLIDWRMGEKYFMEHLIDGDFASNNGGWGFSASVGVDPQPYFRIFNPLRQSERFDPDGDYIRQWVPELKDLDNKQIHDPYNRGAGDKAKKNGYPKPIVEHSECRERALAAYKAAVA

[3] = molecular target: T3, Rad1 of Beauveria bassiana (Beauveria bassiana) (UniProt J4VYF0)
T3 sequence: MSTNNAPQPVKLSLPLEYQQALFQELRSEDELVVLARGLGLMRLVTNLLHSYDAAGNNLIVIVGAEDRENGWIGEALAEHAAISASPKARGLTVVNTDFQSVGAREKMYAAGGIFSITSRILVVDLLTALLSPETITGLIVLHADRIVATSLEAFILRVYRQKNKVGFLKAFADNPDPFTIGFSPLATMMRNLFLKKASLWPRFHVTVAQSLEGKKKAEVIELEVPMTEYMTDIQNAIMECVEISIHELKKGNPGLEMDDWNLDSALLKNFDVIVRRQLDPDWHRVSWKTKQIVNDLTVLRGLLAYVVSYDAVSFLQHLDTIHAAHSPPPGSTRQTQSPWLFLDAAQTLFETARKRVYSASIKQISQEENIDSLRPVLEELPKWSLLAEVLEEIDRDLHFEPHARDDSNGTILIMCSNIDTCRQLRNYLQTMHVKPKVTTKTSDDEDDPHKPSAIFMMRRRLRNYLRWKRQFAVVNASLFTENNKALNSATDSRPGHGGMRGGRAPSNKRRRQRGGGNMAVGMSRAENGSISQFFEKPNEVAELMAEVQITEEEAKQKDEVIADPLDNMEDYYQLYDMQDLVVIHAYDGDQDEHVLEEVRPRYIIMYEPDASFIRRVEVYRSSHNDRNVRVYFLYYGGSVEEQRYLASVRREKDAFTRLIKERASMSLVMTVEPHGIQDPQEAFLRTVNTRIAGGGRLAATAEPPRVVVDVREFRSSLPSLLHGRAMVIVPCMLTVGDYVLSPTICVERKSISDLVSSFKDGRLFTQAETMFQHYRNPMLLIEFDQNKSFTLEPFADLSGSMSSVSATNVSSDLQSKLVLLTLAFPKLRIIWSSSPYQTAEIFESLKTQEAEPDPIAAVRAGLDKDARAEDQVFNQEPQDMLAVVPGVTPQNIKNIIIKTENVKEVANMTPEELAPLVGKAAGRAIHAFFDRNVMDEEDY

Measured: binding

Rad5 ortholog of Beauveria bassiana
no binding: all assays above

Rad16A of Beauveria bassiana
no binding: all assays above

Rad16B of Beauveria bassiana
no binding: all assays above
